This is one part of the list.
Assays:
Assay in all cases: log2 fold change, soluble protein after heating vs DMSO (PISA); higher = thermal stabilisation; K562 lysate, 10 uM; active = over 0.2 and 3.5 SD of the protein, either way, in both replicates (recomputed)
[1] = compound: C1=CC=C(C=C1)[C@H](COC2=CC3=C(C=C2)NC(=O)N3)NC(=O)C4=CC=CN(C4=O)CC5=CC(=C(C=C5)F)F
Summary of the method: (§1)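 Quantification was by TMTpro 16plex LC-MS/MS with equalised channel sums, applied to the supernatant after 21,000xg for 90 min. Samples were crude K562 extract at 1 mg/mL protein in PBS pH 7.4 with 1 mM MgCl2, treated with 10 μM compound for 30 min, heated for 3 min across 48°C-58°C, pooled and brought to 0.5% NP-40 at 4°C. Values are log-two fold changes in thermal stability relative to solvent controls, from duplicates.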

Amino acid sequences for entries named in this document (tags omitted). A change or cut given only in a name is not applied to a line headed by its entry.
UniProt Q17R31: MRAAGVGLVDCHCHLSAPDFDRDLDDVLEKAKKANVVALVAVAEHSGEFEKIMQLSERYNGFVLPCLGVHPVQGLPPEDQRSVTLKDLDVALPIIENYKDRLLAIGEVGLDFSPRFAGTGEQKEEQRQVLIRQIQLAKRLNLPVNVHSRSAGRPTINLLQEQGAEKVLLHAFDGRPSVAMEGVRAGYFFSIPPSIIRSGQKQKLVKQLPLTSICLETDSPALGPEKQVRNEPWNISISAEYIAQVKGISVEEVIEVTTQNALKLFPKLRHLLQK
UniProt Q92734, whole entry, looked up: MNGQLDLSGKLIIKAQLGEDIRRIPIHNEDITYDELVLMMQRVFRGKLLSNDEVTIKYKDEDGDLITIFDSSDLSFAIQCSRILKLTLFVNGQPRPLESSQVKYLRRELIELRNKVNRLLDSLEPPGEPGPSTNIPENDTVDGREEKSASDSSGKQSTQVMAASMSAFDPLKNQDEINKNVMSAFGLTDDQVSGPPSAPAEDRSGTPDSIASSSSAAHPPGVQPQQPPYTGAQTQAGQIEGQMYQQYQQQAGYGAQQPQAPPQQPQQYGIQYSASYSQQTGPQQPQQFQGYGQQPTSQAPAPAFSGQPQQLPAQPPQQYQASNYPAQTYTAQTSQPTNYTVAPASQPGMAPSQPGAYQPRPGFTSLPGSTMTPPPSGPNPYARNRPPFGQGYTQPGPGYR
UniProt Q66K14, whole entry, looked up: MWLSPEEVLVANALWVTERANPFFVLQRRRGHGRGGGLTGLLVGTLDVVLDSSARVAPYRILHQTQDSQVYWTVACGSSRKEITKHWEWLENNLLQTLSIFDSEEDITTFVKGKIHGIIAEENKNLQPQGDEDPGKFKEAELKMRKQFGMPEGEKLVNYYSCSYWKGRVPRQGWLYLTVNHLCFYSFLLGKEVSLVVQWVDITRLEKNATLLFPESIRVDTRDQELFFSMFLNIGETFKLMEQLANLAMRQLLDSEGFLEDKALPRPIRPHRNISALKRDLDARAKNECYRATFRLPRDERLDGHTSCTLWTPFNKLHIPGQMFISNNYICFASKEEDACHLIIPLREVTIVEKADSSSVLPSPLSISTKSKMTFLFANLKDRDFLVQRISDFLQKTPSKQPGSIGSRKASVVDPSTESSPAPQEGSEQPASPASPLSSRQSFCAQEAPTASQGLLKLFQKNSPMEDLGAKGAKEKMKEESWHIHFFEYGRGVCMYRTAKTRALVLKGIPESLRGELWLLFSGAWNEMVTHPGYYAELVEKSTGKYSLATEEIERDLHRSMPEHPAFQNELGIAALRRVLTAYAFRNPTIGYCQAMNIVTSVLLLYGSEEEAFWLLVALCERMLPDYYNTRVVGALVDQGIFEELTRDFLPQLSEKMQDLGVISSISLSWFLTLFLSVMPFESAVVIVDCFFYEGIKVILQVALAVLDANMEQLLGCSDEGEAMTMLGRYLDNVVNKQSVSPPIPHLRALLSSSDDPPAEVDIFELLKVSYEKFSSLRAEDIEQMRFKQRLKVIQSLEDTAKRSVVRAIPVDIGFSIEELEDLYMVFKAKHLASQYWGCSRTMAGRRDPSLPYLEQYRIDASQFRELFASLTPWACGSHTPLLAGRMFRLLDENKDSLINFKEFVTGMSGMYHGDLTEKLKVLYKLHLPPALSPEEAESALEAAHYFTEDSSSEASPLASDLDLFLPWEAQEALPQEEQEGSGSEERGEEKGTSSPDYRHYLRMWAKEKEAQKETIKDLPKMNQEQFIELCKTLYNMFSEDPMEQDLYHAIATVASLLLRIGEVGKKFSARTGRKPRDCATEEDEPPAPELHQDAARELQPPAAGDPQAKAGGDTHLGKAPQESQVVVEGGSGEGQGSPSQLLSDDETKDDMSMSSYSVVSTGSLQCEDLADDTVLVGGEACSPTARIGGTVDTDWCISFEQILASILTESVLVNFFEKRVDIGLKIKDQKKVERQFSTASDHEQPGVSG
UniProt Q86VP1, whole entry, looked up: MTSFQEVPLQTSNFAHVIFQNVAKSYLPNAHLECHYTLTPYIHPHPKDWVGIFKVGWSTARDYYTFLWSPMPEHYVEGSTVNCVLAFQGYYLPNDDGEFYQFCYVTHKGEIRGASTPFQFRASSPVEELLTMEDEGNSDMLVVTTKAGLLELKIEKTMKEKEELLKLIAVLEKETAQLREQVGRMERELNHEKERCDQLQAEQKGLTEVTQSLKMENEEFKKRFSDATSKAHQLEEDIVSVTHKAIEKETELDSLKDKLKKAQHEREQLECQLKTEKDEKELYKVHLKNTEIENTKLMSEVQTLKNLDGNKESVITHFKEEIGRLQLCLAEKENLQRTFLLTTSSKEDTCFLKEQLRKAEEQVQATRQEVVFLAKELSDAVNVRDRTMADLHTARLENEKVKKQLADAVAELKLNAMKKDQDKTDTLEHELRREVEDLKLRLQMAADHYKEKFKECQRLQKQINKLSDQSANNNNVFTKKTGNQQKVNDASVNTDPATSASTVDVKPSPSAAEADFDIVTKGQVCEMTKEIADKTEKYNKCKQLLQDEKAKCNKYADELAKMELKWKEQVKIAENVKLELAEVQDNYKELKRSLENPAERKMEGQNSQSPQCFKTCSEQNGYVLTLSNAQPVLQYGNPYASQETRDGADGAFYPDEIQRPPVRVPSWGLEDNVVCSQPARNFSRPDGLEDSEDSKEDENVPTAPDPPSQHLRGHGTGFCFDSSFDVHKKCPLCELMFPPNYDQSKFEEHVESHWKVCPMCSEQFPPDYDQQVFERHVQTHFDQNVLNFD
UniProt Q8WUA7: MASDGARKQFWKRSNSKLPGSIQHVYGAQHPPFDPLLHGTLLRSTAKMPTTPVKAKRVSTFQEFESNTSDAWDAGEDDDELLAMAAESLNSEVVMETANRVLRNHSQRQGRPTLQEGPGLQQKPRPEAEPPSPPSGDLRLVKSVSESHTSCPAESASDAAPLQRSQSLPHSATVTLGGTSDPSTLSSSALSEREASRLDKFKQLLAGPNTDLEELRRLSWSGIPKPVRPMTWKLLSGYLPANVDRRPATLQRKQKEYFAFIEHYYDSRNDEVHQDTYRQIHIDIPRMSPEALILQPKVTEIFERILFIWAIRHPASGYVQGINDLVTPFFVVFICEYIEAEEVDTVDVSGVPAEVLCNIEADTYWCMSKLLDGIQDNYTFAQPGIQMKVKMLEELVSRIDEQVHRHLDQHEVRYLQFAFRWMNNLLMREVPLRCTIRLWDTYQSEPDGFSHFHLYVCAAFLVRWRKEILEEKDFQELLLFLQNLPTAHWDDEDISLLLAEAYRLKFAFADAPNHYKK
UniProt Q9NUJ3: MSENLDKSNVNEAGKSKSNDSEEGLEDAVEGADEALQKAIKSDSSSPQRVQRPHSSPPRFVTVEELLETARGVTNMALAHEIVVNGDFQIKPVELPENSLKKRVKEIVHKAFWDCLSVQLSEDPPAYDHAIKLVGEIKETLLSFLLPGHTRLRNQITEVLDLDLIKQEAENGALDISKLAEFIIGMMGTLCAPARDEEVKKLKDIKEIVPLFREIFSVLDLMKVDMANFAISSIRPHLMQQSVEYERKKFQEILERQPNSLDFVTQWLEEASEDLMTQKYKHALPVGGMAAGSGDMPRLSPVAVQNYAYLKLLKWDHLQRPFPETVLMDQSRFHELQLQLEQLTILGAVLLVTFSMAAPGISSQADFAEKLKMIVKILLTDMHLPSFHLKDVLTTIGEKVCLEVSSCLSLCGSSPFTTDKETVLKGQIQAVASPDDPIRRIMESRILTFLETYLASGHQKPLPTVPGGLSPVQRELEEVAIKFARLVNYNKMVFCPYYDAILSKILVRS
UniProt Q969Z0: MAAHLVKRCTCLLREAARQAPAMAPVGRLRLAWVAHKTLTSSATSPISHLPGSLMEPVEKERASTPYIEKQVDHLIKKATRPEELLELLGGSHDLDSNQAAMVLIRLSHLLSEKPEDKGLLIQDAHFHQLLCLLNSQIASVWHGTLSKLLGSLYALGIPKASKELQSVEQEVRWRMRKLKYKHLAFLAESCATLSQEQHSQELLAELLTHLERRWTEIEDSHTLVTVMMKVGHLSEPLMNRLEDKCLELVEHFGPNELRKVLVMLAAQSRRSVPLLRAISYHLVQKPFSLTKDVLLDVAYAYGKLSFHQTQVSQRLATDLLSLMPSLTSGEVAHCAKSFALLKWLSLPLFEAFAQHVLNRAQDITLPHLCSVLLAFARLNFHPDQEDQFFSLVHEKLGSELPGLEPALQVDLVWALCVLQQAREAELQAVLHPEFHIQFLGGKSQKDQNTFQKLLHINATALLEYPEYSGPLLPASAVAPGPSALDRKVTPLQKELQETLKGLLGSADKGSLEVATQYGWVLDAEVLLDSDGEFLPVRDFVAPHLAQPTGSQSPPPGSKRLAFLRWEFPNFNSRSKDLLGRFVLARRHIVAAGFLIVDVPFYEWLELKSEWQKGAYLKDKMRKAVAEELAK
UniProt Q12788: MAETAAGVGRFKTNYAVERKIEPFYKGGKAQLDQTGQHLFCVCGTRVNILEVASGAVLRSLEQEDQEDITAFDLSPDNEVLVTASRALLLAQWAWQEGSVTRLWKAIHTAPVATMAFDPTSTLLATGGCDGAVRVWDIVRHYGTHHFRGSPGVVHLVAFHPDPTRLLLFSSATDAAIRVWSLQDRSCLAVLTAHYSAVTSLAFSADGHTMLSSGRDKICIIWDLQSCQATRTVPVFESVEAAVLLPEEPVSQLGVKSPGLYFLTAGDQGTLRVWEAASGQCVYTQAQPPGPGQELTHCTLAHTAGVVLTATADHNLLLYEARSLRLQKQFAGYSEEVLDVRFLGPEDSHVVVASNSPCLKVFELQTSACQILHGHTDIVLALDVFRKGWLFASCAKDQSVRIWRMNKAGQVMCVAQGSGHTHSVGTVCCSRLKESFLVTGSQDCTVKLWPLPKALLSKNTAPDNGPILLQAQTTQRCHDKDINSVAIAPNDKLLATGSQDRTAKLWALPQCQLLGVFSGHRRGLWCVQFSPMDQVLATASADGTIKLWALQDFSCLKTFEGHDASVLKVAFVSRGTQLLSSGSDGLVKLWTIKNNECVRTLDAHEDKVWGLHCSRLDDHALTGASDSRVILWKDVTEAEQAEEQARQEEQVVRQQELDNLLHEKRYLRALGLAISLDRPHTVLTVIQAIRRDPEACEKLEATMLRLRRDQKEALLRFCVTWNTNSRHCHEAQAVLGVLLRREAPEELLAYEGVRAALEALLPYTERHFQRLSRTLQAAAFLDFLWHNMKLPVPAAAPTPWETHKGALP
UniProt Q9UBB9: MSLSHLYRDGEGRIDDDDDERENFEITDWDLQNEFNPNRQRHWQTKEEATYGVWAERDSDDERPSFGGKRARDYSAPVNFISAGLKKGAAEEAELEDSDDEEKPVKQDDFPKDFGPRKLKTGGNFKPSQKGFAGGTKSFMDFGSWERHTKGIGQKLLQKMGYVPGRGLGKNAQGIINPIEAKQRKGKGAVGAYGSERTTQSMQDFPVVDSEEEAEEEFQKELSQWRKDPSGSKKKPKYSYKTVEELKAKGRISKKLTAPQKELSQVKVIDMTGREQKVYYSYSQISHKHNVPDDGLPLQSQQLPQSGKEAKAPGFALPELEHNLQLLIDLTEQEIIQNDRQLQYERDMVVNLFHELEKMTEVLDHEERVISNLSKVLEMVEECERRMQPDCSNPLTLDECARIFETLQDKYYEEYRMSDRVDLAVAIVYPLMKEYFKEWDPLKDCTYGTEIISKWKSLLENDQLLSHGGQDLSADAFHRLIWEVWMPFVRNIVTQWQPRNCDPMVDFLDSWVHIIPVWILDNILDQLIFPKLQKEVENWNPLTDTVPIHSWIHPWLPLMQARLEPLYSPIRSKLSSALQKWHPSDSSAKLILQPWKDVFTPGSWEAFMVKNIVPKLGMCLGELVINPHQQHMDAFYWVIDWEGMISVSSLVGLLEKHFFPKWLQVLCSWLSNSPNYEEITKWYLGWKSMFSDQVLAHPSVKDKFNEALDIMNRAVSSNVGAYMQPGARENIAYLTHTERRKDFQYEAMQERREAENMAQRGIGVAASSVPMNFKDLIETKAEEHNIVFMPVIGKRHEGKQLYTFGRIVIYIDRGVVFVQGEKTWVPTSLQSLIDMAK
UniProt Q12800: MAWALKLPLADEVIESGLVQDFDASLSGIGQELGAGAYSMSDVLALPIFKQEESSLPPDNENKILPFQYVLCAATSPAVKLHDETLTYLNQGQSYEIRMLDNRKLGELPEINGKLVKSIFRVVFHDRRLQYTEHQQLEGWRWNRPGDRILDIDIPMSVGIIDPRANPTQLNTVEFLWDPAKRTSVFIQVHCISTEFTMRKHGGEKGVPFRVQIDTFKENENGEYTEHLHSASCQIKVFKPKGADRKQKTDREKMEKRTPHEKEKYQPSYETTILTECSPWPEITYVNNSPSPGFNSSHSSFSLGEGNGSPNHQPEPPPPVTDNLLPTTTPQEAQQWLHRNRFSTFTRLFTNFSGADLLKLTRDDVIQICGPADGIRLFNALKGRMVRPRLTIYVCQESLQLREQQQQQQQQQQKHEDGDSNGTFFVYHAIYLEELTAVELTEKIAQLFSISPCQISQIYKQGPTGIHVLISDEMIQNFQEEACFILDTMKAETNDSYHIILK

[2] = compound: CC1=C(SC2=C1C(=N[C@H](C3=NN=C(N32)C)CC(=O)N)C4=CC=C(C=C4)Cl)C
Summary of the method: as §1

[3] = compound: CC1=C2C(=CC=C1)N=C(N(C2=O)C3=CC=CC=C3C)CN4C=NC5=C(N=CN=C54)N
Summary of the method: as §1

[4] = compound: Cc1sc2c(c1C)C(c1ccc(Cl)cc1)=N[C@@H](CC(=O)OC(C)(C)C)c1nnc(C)n1-2
Summary of the method: as §1

[5] = compound: c1ccc([C@@H]2C[C@H]2NC2CCNCC2)cc1
Summary of the method: as §1

Measured: log2 fold change

TBC1D5 isoform 2 (UniProt Q92609)
inactive: [1] -0.025 | [2] 0.024 | [3] 0.025 | [4] 0.005 | [5] -0.038

TATDN3 isoform 3 (UniProt Q17R31)
inactive: [1] 0.008 | [2] 0.017 | [3] 0.013 | [4] -0.132 | [5] -0.084

TFG (UniProt Q92734)
inactive: [1] 0.025 | [2] 0.008 | [3] -0.015 | [4] 0.031 | [5] -0.025

TBC1D9B isoform 2 (UniProt Q66K14)
inactive: [1] 0.004 | [2] 0.026 | [3] 0.041 | [4] -0.009 | [5] -0.081

TAPT1 (UniProt Q6NXT6)
inactive: [1] -0.004 | [2] -0.023 | [3] 0.092 | [4] -0.07 | [5] -0.128

Copied from the results shown (2 entries):
TFG (UniProt Q92734)
inactive: [1] 0.025 | [2] 0.008 | [3] -0.015 | [4] 0.031 | [5] -0.025

TBC1D9B isoform 2 (UniProt Q66K14)
inactive: [1] 0.004 | [2] 0.026 | [3] 0.041 | [4] -0.009 | [5] -0.081

Later entries:

TBC1D15 isoform 3 (UniProt Q8TC07)
inactive: [1] -0.007 | [2] -0.01 | [3] 0.003 | [4] 0.04 | [5] 0.052

TAOK1 (UniProt Q7L7X3)
inactive: [1] 0.057 | [2] 0.021 | [3] 0.014 | [4] -0.031 | [5] 0.106

TAX1BP1 (UniProt Q86VP1)
inactive: [1] -0.011 | [2] 0.005 | [3] -0.032 | [4] 0.01 | [5] -0.002

TBC1D22A (UniProt Q8WUA7)
inactive: [1] 0.007 | [2] 0.007 | [3] 0.012 | [4] 0.02 | [5] 0.017

TCEAL4 isoform 2 (UniProt Q96EI5)
inactive: [1] 0.165 | [2] -0.021 | [3] 0.025 | [4] -0.093 | [5] -0.148

TDRKH (UniProt Q9Y2W6)
inactive: [1] -0.02 | [2] -0.028 | [3] 0.1 | [4] 0.005 | [5] -0.053

TCP11L1 (UniProt Q9NUJ3)
inactive: [1] -0.023 | [2] -0.031 | [3] -0.02 | [4] -0.021 | [5] -0.095

TBC1D8B (UniProt Q0IIM8)
inactive: [1] -0.086 | [2] -0.078 | [3] -0.038 | [4] -0.013 | [5] -0.101

TBRG4 (UniProt Q969Z0)
inactive: [1] -0.071 | [2] 0.024 | [3] 0.018 | [4] 0.052 | [5] 0.094

TEX10 (UniProt Q9NXF1)
inactive: [1] -0.046 | [2] 0.066 | [3] 0.045 | [4] 0.001 | [5] 0.061

TBL3 (UniProt Q12788)
inactive: [1] 0.024 | [2] 0.003 | [3] -0.014 | [4] -0.014 | [5] 0.014

TARS1 (UniProt P26639)
inactive: [1] -0.003 | [2] -0.003 | [3] 0.002 | [4] 0.038 | [5] 0.019

TFIP11 (UniProt Q9UBB9)
inactive: [1] -0.033 | [2] -0.022 | [3] 0.007 | [4] -0.002 | [5] 0.044

TFAM (UniProt Q00059)
inactive: [1] 0.003 | [2] 0.041 | [3] -0.046 | [4] 0.024 | [5] 0.037

TATDN1 (UniProt Q6P1N9)
inactive: [1] 0.059 | [2] -0.013 | [3] -0.01 | [4] -0.029 | [5] 0.012

TBC1D7 (UniProt Q9P0N9)
inactive: [1] -0.01 | [2] -0.002 | [3] 0.042 | [4] 0.051 | [5] -0.084

TFCP2 (UniProt Q12800)
inactive: [1] 0.044 | [2] -0.013 | [3] 0.004 | [4] -0.013 | [5] -0.103

TES (UniProt Q9UGI8)
inactive: [1] 0.024 | [2] 0.014 | [3] -0.002 | [4] -0.017 | [5] -0.082

TATDN2 (UniProt Q93075)
inactive: [1] -0.021 | [2] -0.092 | [3] -0.039 | [4] 0.08 | [5] -0.05

— the supplement of paper PMC10849652
